Data: the supplement of paper PMC10849652
The list shows a part of the results.

Sequences of proteins named here, by UniProt entry; tags and fusion partners are left off. A change or cut given only in a name is not applied to a line headed by its entry.
UniProt O60496: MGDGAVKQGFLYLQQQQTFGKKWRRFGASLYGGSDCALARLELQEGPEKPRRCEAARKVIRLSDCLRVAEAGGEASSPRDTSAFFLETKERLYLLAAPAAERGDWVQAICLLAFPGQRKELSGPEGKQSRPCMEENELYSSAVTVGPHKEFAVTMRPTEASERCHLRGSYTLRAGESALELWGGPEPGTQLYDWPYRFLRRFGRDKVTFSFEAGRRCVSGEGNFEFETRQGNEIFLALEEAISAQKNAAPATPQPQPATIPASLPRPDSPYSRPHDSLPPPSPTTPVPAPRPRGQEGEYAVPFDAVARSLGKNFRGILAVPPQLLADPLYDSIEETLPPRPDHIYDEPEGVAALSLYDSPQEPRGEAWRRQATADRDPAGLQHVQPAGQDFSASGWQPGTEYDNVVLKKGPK
UniProt Q96HY7: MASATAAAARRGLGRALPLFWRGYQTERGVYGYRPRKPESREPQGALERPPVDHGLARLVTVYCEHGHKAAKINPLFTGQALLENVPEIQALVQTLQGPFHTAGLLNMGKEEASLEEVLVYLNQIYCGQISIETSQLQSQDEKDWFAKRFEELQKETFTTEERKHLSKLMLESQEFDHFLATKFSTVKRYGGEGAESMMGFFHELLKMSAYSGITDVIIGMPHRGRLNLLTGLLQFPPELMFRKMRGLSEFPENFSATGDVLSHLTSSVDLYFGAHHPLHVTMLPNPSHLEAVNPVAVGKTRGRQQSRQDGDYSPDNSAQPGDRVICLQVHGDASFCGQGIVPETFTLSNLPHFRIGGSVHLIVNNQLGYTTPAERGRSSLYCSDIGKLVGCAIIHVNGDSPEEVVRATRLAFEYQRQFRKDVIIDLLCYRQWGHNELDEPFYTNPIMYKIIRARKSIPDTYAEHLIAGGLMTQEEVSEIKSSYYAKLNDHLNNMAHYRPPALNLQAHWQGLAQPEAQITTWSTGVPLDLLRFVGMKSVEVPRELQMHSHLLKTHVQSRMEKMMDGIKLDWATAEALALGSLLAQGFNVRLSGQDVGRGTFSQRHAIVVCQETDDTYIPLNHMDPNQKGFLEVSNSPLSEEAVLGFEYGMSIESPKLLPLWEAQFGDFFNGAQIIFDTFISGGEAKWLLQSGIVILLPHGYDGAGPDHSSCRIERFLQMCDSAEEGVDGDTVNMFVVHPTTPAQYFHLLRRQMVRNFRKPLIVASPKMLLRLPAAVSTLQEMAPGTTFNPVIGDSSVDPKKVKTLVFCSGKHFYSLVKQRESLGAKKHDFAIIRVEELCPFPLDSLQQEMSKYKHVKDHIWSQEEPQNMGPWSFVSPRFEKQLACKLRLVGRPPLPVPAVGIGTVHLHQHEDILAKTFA

Legend:
Assay in all cases: log2 fold change, soluble protein after heating vs DMSO (PISA); higher = thermal stabilisation; K562 lysate, 10 uM; active = over 0.2 and 3.5 SD of the protein, either way, in both replicates (recomputed)
[1] = compound: C1=CC=C(C=C1)[C@H](COC2=CC3=C(C=C2)NC(=O)N3)NC(=O)C4=CC=CN(C4=O)CC5=CC(=C(C=C5)F)F
Summary of the method: (§1)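 Thermal stability, expressed as log-two fold change relative to solvent controls, is given from duplicates. Crude K562 extract in PBS pH 7.4 with 1 mM MgCl2, at 1 mg/mL protein, was treated with 10 μM compound for 30 min and heated in aliquots for 3 min across 48°C-58°C. After pooling, adjustment to 0.5% NP-40 at 4°C and centrifugation at 21,000xg for 90 min, supernatant protein was measured by TMTpro 16plex LC-MS/MS with channel sums equalised.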

[2] = compound: CC1=C(SC2=C1C(=N[C@H](C3=NN=C(N32)C)CC(=O)N)C4=CC=C(C=C4)Cl)C
Summary of the method: as §1

[3] = compound: c1ccc([C@@H]2C[C@H]2NC2CCNCC2)cc1
Summary of the method: as §1

| Target | log2 fold change [1] | log2 fold change [2] | log2 fold change [3] |
| --- | --- | --- | --- |
| DOCK11, A0A0J9YW64 | inactive: 0.032 | inactive: 0.011 | inactive: 0.077 |
| DNMT3A (UniProt Q9Y6K1) |  |  | inactive: -0.1 |
| DOK2 (UniProt O60496) |  |  | inactive: -0.146 |
| DHTKD1 (UniProt Q96HY7) | inactive: 0.032 | inactive: -0.2 | inactive: 0.048 |
